We go through three substances from article PMC12712735.

Chains of the proteins cited; added tags and fusions are not shown. Lines headed by an entry give the natural chain unless they say otherwise; changes in a name come on top.
UniProt P24347: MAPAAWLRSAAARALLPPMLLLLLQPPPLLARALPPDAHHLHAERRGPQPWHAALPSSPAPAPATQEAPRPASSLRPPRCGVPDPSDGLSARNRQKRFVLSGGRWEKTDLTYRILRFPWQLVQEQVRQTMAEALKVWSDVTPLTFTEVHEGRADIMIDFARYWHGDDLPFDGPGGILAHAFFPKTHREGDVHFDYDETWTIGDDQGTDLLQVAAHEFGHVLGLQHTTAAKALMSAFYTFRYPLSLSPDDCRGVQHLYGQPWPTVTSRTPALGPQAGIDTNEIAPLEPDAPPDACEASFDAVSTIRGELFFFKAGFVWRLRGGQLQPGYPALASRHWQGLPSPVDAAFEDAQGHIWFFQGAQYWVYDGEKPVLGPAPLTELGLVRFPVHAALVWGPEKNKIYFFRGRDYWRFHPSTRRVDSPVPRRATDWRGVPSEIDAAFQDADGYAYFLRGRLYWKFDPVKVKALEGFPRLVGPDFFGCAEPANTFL
UniProt P08253: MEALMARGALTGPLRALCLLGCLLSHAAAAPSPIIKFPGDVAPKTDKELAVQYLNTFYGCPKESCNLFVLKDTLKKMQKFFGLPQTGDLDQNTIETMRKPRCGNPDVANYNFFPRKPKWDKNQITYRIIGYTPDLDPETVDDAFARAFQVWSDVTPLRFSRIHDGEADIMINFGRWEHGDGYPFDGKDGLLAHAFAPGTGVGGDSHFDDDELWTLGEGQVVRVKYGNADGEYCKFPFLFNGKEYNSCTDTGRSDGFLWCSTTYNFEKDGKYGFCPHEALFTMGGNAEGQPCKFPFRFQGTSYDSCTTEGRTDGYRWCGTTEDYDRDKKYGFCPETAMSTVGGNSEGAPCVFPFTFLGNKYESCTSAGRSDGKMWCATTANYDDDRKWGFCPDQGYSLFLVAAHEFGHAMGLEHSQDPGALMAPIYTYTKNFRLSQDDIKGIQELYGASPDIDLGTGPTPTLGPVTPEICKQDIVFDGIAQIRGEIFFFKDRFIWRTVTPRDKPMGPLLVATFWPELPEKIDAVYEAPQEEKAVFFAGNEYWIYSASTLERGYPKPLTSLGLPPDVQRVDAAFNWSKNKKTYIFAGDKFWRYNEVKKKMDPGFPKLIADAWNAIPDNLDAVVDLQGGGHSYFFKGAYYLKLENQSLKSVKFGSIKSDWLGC
UniProt P14780: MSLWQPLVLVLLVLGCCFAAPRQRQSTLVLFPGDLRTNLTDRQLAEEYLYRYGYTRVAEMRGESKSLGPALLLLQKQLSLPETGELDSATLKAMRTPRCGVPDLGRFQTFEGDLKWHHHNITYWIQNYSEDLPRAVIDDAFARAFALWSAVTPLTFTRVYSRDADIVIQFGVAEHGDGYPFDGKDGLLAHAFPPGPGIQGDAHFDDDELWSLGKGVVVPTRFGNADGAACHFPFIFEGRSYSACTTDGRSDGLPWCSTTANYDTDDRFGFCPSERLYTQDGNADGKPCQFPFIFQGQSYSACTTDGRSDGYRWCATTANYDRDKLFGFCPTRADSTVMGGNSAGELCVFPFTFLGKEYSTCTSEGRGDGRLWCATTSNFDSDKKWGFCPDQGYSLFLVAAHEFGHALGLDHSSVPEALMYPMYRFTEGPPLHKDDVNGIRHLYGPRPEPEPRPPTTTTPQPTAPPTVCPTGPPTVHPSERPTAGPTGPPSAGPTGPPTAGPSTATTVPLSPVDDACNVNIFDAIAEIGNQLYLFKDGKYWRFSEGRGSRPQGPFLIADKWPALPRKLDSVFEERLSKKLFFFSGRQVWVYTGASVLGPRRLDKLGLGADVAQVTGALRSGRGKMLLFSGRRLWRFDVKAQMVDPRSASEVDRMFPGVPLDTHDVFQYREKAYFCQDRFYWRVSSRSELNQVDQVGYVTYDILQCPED

Results are given in words; binding and its absence hold for the method and conditions named. In cells and extracts the contact can be indirect. A result given as binding can be weak or reduced; the word gives no strength. Tags and fused reporters may be left off the sequences shown.

This test addresses T1, FLAG-tagged serglycin (SRGN) (UniProt P10124).
T1 sequence: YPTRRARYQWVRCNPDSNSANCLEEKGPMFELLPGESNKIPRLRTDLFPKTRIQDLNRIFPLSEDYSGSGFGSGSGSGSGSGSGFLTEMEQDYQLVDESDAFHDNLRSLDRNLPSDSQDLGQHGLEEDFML
The test is described as follows: co-IP; HEK293T cells transfected with SRGN-Flag for 48 h; cell lysates incubated with anti-Flag beads; immunoblot with anti-Flag, anti-MMP11, anti-MMP9 and anti-MMP2; IP/Co-IP kit (ThermoFisher 88805).
Turning to MMP11 (from UniProt P24347) (enzyme), the binding result is “no binding”.
Consider “matrix metalloproteinase 2 (MMP2) (from UniProt P08253) (enzyme)”, for which the binding entry was “binds”.
Consider “matrix metalloproteinase 9 (MMP9) (from UniProt P14780) (enzyme)”, for which the binding entry is “binds”.
